Source: PubChem BioAssay AID256 (DTP/NCI, 2004)
The list does not hold the whole screen: it gathers tests that were run many times, whatever their T/C, doses with no T/C, and many T/C values between a quarter and a half above the control. Other doses and runs of a compound stand elsewhere. T/C is the treated group as % of the vehicle group. Some doses have a count of surviving animals in place of a T/C: the source files T/C as zero there, which appears to mark a toxic dose or a test without result, not a measured value. Some doses without a T/C left all or most animals alive at the check, yet need not have been tolerated: the source hardly ever lists a survival T/C far under the control, and the zero likely stands for such cases as well. Counts of survivors are from the toxicity check (mostly the fifth day) where no day follows; animals may have died later. Schedule codes are those of the source, taken here to give the interval after Q, in days (D) or hours (H), and the number of doses after X. Some doses were run more than once; the results are listed from low to high. For survival time, the PubChem record calls one and a half times the control and up active, and a quarter to a half above the control has no call in these data; cut-offs in other NCI protocols can differ.

System: CD2F1 mice, L1210 leukemia ip, survival T/C
Test: NCI In Vivo Anticancer Drug Screen. Data for tumor model L1210 Leukemia (intraperitoneal) in CD2F1 (CDF1) mice
Details: higher T/C = longer survival
Description: The antitumor activity of compounds was measured in mice bearing transplantable tumors. Survival or tumor size were measured and the results are expressed as the measurement made in the treated group (T) divided by the measurement made in the vehicle treated control group (C). The tumor model used in this assay is L1210 Leukemia (intraperitoneal) in CD2F1 (CDF1) mice

[1] = T/C endpoint: mean survival time, dose: 200.0 mg/kg/injection, schedule: Q04DX003 (ip), vehicle: saline with Tween-80
[2] = T/C endpoint: mean survival time, dose: 400.0 mg/kg/injection, schedule: Q04DX003 (ip), vehicle: saline with Tween-80
[3] = T/C endpoint: mean survival time, dose: 200.0 mg/kg/injection, schedule: Q04DX003 (ip), vehicle: saline
[4] = T/C endpoint: mean survival time, dose: 400.0 mg/kg/injection, schedule: Q04DX003 (ip), vehicle: saline
[5] = T/C endpoint: mean survival time, dose: 400.0 mg/kg/injection, schedule: Q01DX009 (ip), vehicle: saline with Tween-80
[6] = T/C endpoint: mean survival time, dose: 75.0 mg/kg/injection, schedule: Q01DX001 (ip), vehicle: saline
[7] = T/C endpoint: mean survival time, dose: 150.0 mg/kg/injection, schedule: Q01DX001 (ip), vehicle: saline
[8] = T/C endpoint: mean survival time, dose: 300.0 mg/kg/injection, schedule: Q01DX001 (ip), vehicle: saline
[9] = T/C endpoint: mean survival time, dose: 100.0 mg/kg/injection, schedule: Q01DX009 (ip), vehicle: saline

For CCCCCOc1nccc(N)n1, the survivor count (T/C endpoint: mean survival time, dose: 200.0 mg/kg/injection, schedule: Q01DX001 (ip), vehicle: saline with Tween-80) was 0 of 6 and the survivor count (T/C endpoint: mean survival time, dose: 400.0 mg/kg/injection, schedule: Q01DX001 (ip), vehicle: saline with Tween-80) was 0 of 6.
In the case of CN(C)CC(C)(C)C(=O)c1ccc(Cl)cc1, the survivor count (T/C endpoint: mean survival time, dose: 400.0 mg/kg/injection, schedule: Q04DX002 (ip), vehicle: saline) is reported as 0 of 3.
c1cc2c(cc1NC1=NCCO1)CCC2 was tested, and the survivor count (T/C endpoint: mean survival time, dose: 100.0 mg/kg/injection, schedule: Q04DX003 (ip), vehicle: saline with Tween-80) was 1 of 6, the survivor count [1] was 0 of 6 and the survivor count [2] was 0 of 6.
In the case of CCNC1(c2ccccc2)CCCCC1, the survivor count (T/C endpoint: mean survival time, dose: 50.0 mg/kg/injection, schedule: Q04DX003 (ip), vehicle: saline) is reported as 1 of 3, the survivor count (T/C endpoint: mean survival time, dose: 100.0 mg/kg/injection, schedule: Q04DX003 (ip), vehicle: saline) is reported as 0 of 3 and the survivor count [3] is reported as 0 of 3. The survivor count [4] was 0 of 3.
With O=[N+]([O-])/C(=C/c1ccccc1)c1ccccc1 the survivor count (T/C endpoint: mean survival time, dose: 100.0 mg/kg/injection, schedule: Q04DX003 (ip), vehicle: Klucel (hydroxypropylcellulose) (HPC)) was 5 of 6, the survivor count (T/C endpoint: mean survival time, dose: 200.0 mg/kg/injection, schedule: Q04DX003 (ip), vehicle: Klucel (hydroxypropylcellulose) (HPC)) was 2 of 6 and the survivor count (T/C endpoint: mean survival time, dose: 400.0 mg/kg/injection, schedule: Q04DX003 (ip), vehicle: Klucel (hydroxypropylcellulose) (HPC)) was 0 of 6.
In the case of CCOc1cccc(Cc2cn(Cc3cccc(NC(=O)c4ccc(S(=O)(=O)F)cc4)c3)c(=O)[nH]c2=O)c1, the survivor count (T/C endpoint: mean survival time, dose: 300.0 mg/kg/injection, schedule: Q01DX001 (ip), vehicle: saline with Tween-80) is reported as 6 of 6.
With CCCCCCCCCCCCCCCC(=O)OCC1OC(N2C=CC(=O)CC2=O)C(O)C1O (centres undefined) the T/C (T/C endpoint: median survival time, dose: 6.0 mg/kg/injection, schedule: Q01DX009 (ip), vehicle: saline + alcohol) was 132 % of control and the T/C (T/C endpoint: median survival time, dose: 9.0 mg/kg/injection, schedule: Q01DX009 (ip), vehicle: saline + alcohol) was 149 % of control.
In the case of CCCCCCCCCCCCCCCC(=O)N(CCC#N)C(C)(C)CCC(C)(C)N(CCC#N)C(=O)CCCCCCCCCCCCCCC, the survivor count (T/C endpoint: mean survival time, dose: 400.0 mg/kg/injection, schedule: Q01DX009 (ip), vehicle: Klucel (hydroxypropylcellulose) (HPC)) is reported as 6 of 6.
CN(C)P1(=S)NCC(C(C)(C)C)CO1 (centres undefined) was tested, and the survivor count (T/C endpoint: mean survival time, dose: 500.0 mg/kg/injection, schedule: Q01DX001 (ip), vehicle: distilled water + Tween-80) was 2 of 6.
In the case of COc1cc([N+](=O)[O-])ccc1NC(=O)Nc1nccs1, the T/C (T/C endpoint: mean survival time, dose: 100.0 mg/kg/injection, schedule: Q01DX009 (ip), vehicle: saline with Tween-80) is reported as 97, 98, 104, 114 % of control and the survivor count [5] is reported as 3 of 3.
Nc1cc(S(=O)(=O)O)c2cccnc2c1O was tested, and the survivor count [4] was 3 of 6.
With CN(C)N=Nc1ccc(Cl)cc1C(N)=O the survivor count (T/C endpoint: mean survival time, dose: 150.0 mg/kg/injection, schedule: Q01DX009 (ip), vehicle: Klucel (hydroxypropylcellulose) (HPC)) was 5 of 6 and the survivor count (T/C endpoint: mean survival time, dose: 300.0 mg/kg/injection, schedule: Q01DX009 (ip), vehicle: Klucel (hydroxypropylcellulose) (HPC)) was 2 of 6 and 4 of 6.
CN(C)CCSCC(=O)N1c2ccccc2Sc2ccccc21 was tested, and the survivor count [3] was 1 of 6 and the survivor count [4] was 0 of 6.
For Cc1cc2c3ccc(C)[n+](C)c3ccc2n1C, the survivor count [6] was 0 of 6, the survivor count [7] was 0 of 6 and the survivor count [8] was 0 of 6.
For COc1cc(CC(=O)NO)cc(OC)c1OC, the survivor count (T/C endpoint: mean survival time, dose: 400.0 mg/kg/injection, schedule: Q04DX002 (ip), vehicle: saline with Tween-80) was 3 of 3.
COC(=O)C1CCC[N+](C)(C)C1 (centres undefined) was tested, and the survivor count [9] was 3 of 6.
In the case of CNC(=O)c1cccc2c(Nc3ccc(NS(C)(=O)=O)cc3OC)c3cccc(C)c3nc12, the T/C (T/C endpoint: median survival time, dose: 1.5 mg/kg/injection, schedule: Q01DX009 (ip), vehicle: water) is reported as 135 % of control, the T/C (T/C endpoint: median survival time, dose: 3.12 mg/kg/injection, schedule: Q01DX009 (ip), vehicle: water) is reported as 133 % of control and the T/C (T/C endpoint: median survival time, dose: 6.0 mg/kg/injection, schedule: Q01DX009 (ip), vehicle: water) is reported as 132 % of control. The survivor count (T/C endpoint: median survival time, dose: 12.5 mg/kg/injection, schedule: Q01DX009 (ip), vehicle: water) was 6 of 6, the survivor count (T/C endpoint: median survival time, dose: 24.0 mg/kg/injection, schedule: Q01DX009 (ip), vehicle: water) was 6 of 6 and the survivor count (T/C endpoint: median survival time, dose: 25.0 mg/kg/injection, schedule: Q01DX009 (ip), vehicle: water) was 6 of 6. For the same compound, the survivor count (T/C endpoint: median survival time, dose: 50.0 mg/kg/injection, schedule: Q01DX005 (oral), vehicle: water) was 6 of 6, the survivor count (T/C endpoint: median survival time, dose: 50.0 mg/kg/injection, schedule: Q01DX009 (ip), vehicle: water) was 5 of 6 and 6 of 6 and the survivor count (T/C endpoint: median survival time, dose: 100.0 mg/kg/injection, schedule: Q01DX005 (oral), vehicle: water) was 6 of 6. For the same compound, the survivor count (T/C endpoint: median survival time, dose: 100.0 mg/kg/injection, schedule: Q01DX009 (ip), vehicle: water) was 6 of 6, the survivor count (T/C endpoint: median survival time, dose: 200.0 mg/kg/injection, schedule: Q01DX005 (oral), vehicle: water) was 6 of 6 and the survivor count (T/C endpoint: median survival time, dose: 200.0 mg/kg/injection, schedule: Q01DX009 (ip), vehicle: water) was 1 of 6.
CCC(=O)[O][Bi]([c]1ccccc1)[c]1ccccc1 was tested, and the survivor count (T/C endpoint: median survival time, dose: 50.0 mg/kg/injection, schedule: Q01DX009 (ip), vehicle: Klucel (hydroxypropylcellulose) (HPC)) was 0 of 6, the survivor count (T/C endpoint: median survival time, dose: 100.0 mg/kg/injection, schedule: Q01DX009 (ip), vehicle: Klucel (hydroxypropylcellulose) (HPC)) was 0 of 6 and the survivor count (T/C endpoint: median survival time, dose: 200.0 mg/kg/injection, schedule: Q01DX009 (ip), vehicle: Klucel (hydroxypropylcellulose) (HPC)) was 0 of 6. For the same compound, the survivor count (T/C endpoint: median survival time, dose: 400.0 mg/kg/injection, schedule: Q01DX009 (ip), vehicle: Klucel (hydroxypropylcellulose) (HPC)) was 0 of 6.
O/N=C\c1ccc(/C=N/O)cc1 was tested, and the survivor count [2] was 1 of 6.
In the case of O=C(CCl)c1cccnc1C(=O)O, the survivor count [1] is reported as 1 of 6 and the survivor count [2] is reported as 0 of 6.
With CN(C)C=C1C(=O)NC(=O)NC1=O the survivor count (T/C endpoint: mean survival time, dose: 400.0 mg/kg/injection, schedule: Q01DX001 (ip), vehicle: saline) was 0 of 6.
For COc1ccccc1-n1c(O)c(N=Nc2ccccc2)c(=O)n(-c2ccccc2)c1=S, the survivor count (T/C endpoint: mean survival time, dose: 200.0 mg/kg/injection, schedule: Q04DX003 (ip), vehicle: acetone) was 5 of 6 and the survivor count (T/C endpoint: mean survival time, dose: 400.0 mg/kg/injection, schedule: Q04DX003 (ip), vehicle: acetone) was 1 of 6.
With CC(=O)OC1C=CC(OC(C)=O)O1 (centres undefined) the survivor count (T/C endpoint: mean survival time, dose: 15.0 mg/kg/injection, schedule: Q01DX001 (ip), vehicle: saline) was 3 of 6, the survivor count (T/C endpoint: mean survival time, dose: 30.0 mg/kg/injection, schedule: Q01DX001 (ip), vehicle: saline) was 0 of 6 and the survivor count [6] was 0 of 6. For the same compound, the survivor count [7] was 0 of 6 and the survivor count [8] was 0 of 6.
For CC[N+](C)(CC)CCOC(=O)c1ccccc1Oc1ccc(C)cc1, the survivor count [9] was 3 of 6.
COC1CCC2CCN(C)C(Cc3ccc(Oc4ccc(CC5C6CC(OC)CCC6CCN5C)cc4)cc3)C2C1 (centres undefined) was tested, and the survivor count (T/C endpoint: mean survival time, dose: 6.25 mg/kg/injection, schedule: Q04DX002 (ip), vehicle: saline with Tween-80) was 2 of 3, the survivor count (T/C endpoint: mean survival time, dose: 12.5 mg/kg/injection, schedule: Q04DX002 (ip), vehicle: saline with Tween-80) was 0 of 3 and the survivor count (T/C endpoint: mean survival time, dose: 25.0 mg/kg/injection, schedule: Q04DX002 (ip), vehicle: saline with Tween-80) was 0 of 3. The survivor count (T/C endpoint: mean survival time, dose: 50.0 mg/kg/injection, schedule: Q04DX002 (ip), vehicle: saline with Tween-80) was 0 of 3.
In the case of CCN(CC)CCN1CC2CC=CCC2C1 (centres undefined), the survivor count (T/C endpoint: mean survival time, dose: 200.0 mg/kg/injection, schedule: Q01DX009 (ip), vehicle: saline with Tween-80) is reported as 0 of 6 and the survivor count [5] is reported as 0 of 6.
COc1cc2cnccc2cc1O was tested, and the survivor count (T/C endpoint: mean survival time, dose: 200.0 mg/kg/injection, schedule: Q01DX009 (ip), vehicle: water) was 0 of 6 and the survivor count (T/C endpoint: mean survival time, dose: 400.0 mg/kg/injection, schedule: Q01DX009 (ip), vehicle: water) was 0 of 6.
With COC1C(O)C(C)OC(OC2CCC3(C)C(CCC4C3C(O)CC3(C)C(C5=CC(=O)OC5)CCC43O)C2)C1O (centres undefined) the survivor count [6] was 1 of 6, the survivor count [7] was 0 of 6 and the survivor count [8] was 0 of 6.
